Measurements reported in the supplement of paper PMC8728848.
The other results are listed elsewhere or left out.

Assays:
Assay in all cases: glycan array binding signal (z-score within array); higher = stronger binding
Details in all cases: glycan notation: IUPAC condensed, linker removed
[1] = molecular target: Neu5Ac(a2-6)Gal(b1-4)GlcNAc(b1-6)[Gal(b1-3)GlcNAc(b1-3)]Gal(b1-4)Glc
Summary of the method: (§1)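 The binding signal is a Z-score computed within each array. Data were drawn from 3228 arrays in the Consortium for Functional Glycomics database, restricted to those with a known protein sequence. Scores were averaged over arrays of the same protein sequence at different concentrations or buffers, and over linkers, and negative values can be taken as non-binding.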

[2] = molecular target: Neu5Ac(a2-6)Gal(b1-4)GlcNAc(b1-6)[Gal(b1-3)]GalNAc
Summary of the method: as §1

[3] = molecular target: Neu5Ac(a2-6)Gal(b1-4)GlcNAc6S
Summary of the method: as §1

Neu5Ac(a2-6)GalNAc = molecular target: Neu5Ac(a2-6)GalNAc
Summary of the method: as §1

[4] = molecular target: Neu5Ac(a2-6)GalNAc(b1-4)GlcNAc
Summary of the method: as §1

[5] = molecular target: Neu5Ac(a2-6)GalNAc(b1-4)GlcNAc6S
Summary of the method: as §1

[6] = molecular target: Neu5Ac(a2-6)GlcNAc(b1-4)GlcNAc
Summary of the method: as §1

[7] = molecular target: Neu5Ac(a2-6)GlcNAc(b1-4)GlcNAc(b1-4)GlcNAc
Summary of the method: as §1

Neu5Ac(a2-8)Neu5Ac = molecular target: Neu5Ac(a2-8)Neu5Ac
Summary of the method: as §1

[8] = molecular target: Neu5Ac(a2-8)Neu5Ac(a2-3)Gal(b1-3)GalNAc(b1-4)[Neu5Ac(a2-3)]Gal(b1-4)Glc
Summary of the method: as §1

[9] = molecular target: Neu5Ac(a2-8)Neu5Ac(a2-3)Gal(b1-3)GalNAc(b1-4)[Neu5Ac(a2-8)Neu5Ac(a2-3)]Gal(b1-4)Glc
Summary of the method: as §1

[10] = molecular target: Neu5Ac(a2-8)Neu5Ac(a2-3)Gal(b1-4)Glc
Summary of the method: as §1

[11] = molecular target: Neu5Ac(a2-8)Neu5Ac(a2-3)Gal(b1-4)GlcNAc
Summary of the method: as §1

[12] = molecular target: Neu5Ac(a2-8)Neu5Ac(a2-3)[Gal(b1-3)GalNAc(b1-4)]Gal(b1-4)Glc
Summary of the method: as §1

[13] = molecular target: Neu5Ac(a2-8)Neu5Ac(a2-3)[GalNAc(b1-4)]Gal(b1-4)Glc
Summary of the method: as §1

[14] = molecular target: Neu5Ac(a2-8)Neu5Ac(a2-8)Neu5Ac
Summary of the method: as §1

[15] = molecular target: Neu5Ac(a2-8)Neu5Ac(a2-8)Neu5Ac(a2-3)Gal(b1-4)Glc
Summary of the method: as §1

[16] = molecular target: Neu5Ac(a2-8)Neu5Ac(a2-8)Neu5Ac(a2-3)[Gal(b1-3)GalNAc(b1-4)]Gal(b1-4)Glc
Summary of the method: as §1

[17] = molecular target: Neu5Ac(a2-8)Neu5Ac(a2-8)Neu5Ac(a2-3)[GalNAc(b1-4)]Gal(b1-4)Glc
Summary of the method: as §1

[18] = molecular target: Neu5Ac(a2-8)Neu5Ac(a2-8)Neu5Ac(a2-8)Neu5Ac(a2-3)[GalNAc(b1-4)]Gal(b1-4)Glc
Summary of the method: as §1

[19] = molecular target: Neu5Ac(a2-8)Neu5Gc(a2-3)Gal(b1-4)GlcNAc
Summary of the method: as §1

[20] = molecular target: Neu5Ac(b2-6)Gal(b1-4)GlcNAc
Summary of the method: as §1

Neu5Ac(b2-6)GalNAc = molecular target: Neu5Ac(b2-6)GalNAc
Summary of the method: as §1

[21] = molecular target: Neu5Ac9Ac(a2-3)Gal(b1-4)GlcNAc
Summary of the method: as §1

[22] = molecular target: Neu5Ac9Ac(a2-6)Gal(b1-4)GlcNAc
Summary of the method: as §1

[23] = molecular target: Neu5Gc(a2-3)Gal(b1-3)GlcNAc
Summary of the method: as §1

[24] = molecular target: Neu5Gc(a2-3)Gal(b1-3)[Fuc(a1-4)]GlcNAc
Summary of the method: as §1

Neu5Gc(a2-3)Gal(b1-4)Glc = molecular target: Neu5Gc(a2-3)Gal(b1-4)Glc
Summary of the method: as §1

[25] = molecular target: Neu5Gc(a2-3)Gal(b1-4)GlcNAc
Summary of the method: as §1

[26] = molecular target: Neu5Gc(a2-3)Gal(b1-4)GlcNAc(b1-3)Gal(b1-4)GlcNAc(b1-2)Man(a1-3)[Neu5Gc(a2-3)Gal(b1-4)GlcNAc(b1-3)Gal(b1-4)GlcNAc(b1-2)Man(a1-6)]Man(b1-4)GlcNAc(b1-4)GlcNAc
Summary of the method: as §1

[27] = molecular target: Neu5Gc(a2-3)Gal(b1-4)[Fuc(a1-3)]GlcNAc
Summary of the method: as §1

[28] = molecular target: Neu5Gc(a2-6)Gal(b1-4)GlcNAc
Summary of the method: as §1

Neu5Gc(a2-6)GalNAc = molecular target: Neu5Gc(a2-6)GalNAc
Summary of the method: as §1

[29] = molecular target: Neu5Gc(a2-8)Neu5Ac(a2-3)Gal(b1-4)GlcNAc
Summary of the method: as §1

[30] = molecular target: Neu5Gc(a2-8)Neu5Gc(a2-3)Gal(b1-4)GlcNAc
Summary of the method: as §1

[31] = molecular target: Neu5Gc(a2-8)Neu5Gc(a2-3)Gal(b1-4)GlcNAc(b1-3)Gal(b1-4)GlcNAc
Summary of the method: as §1

[32] = molecular target: Neu5Gc(a2-8)Neu5Gc(a2-6)Gal(b1-4)GlcNAc
Summary of the method: as §1

[33] = molecular target: Neu5Gc(b2-6)Gal(b1-4)GlcNAc
Summary of the method: as §1

B1: Pbx2CASH domain (Cryptococcus neoformans) (protein)
chain: GIPGPNRLYRLSGPIIFTAADQEIATYGYPTGSERAVLRVEGRNTATAIQGDCRRCARVSVKNLVVDGNRKKLGRMRDFQLATGLVVLGGNEGQSIQNSWIKNPRGFTAIHIREGDKLQCSGARVEKNEIGPVGEEYDPEKDGDDPEMSPLGRPLADGVSIACRDSFIRDNTFRDNTDAAIVVYCSPGTLIHA
- glycan array binding signal (z-score) [1]: -0.698
- glycan array binding signal (z-score) [2]: 0.333
- glycan array binding signal (z-score) [3]: 2.1
- glycan array binding signal (z-score) (Neu5Ac(a2-6)GalNAc): -0.729
- glycan array binding signal (z-score) [4]: -0.343
- glycan array binding signal (z-score) [5]: -0.471
- glycan array binding signal (z-score) [6]: -0.404
- glycan array binding signal (z-score) [7]: -0.208
- glycan array binding signal (z-score) (Neu5Ac(a2-8)Neu5Ac): -0.046
- glycan array binding signal (z-score) [8]: 0.156
- glycan array binding signal (z-score) [9]: -0.522
- glycan array binding signal (z-score) [10]: -0.837
- glycan array binding signal (z-score) [11]: -0.683
- glycan array binding signal (z-score) [12]: 0.336
- glycan array binding signal (z-score) [13]: 1.64
- glycan array binding signal (z-score) [14]: 0.505
- glycan array binding signal (z-score) [15]: 0.223
- glycan array binding signal (z-score) [16]: -0.408
- glycan array binding signal (z-score) [17]: 3.58
- glycan array binding signal (z-score) [18]: 0.464
- glycan array binding signal (z-score) [19]: -0.756
- glycan array binding signal (z-score) [20]: -0.444
- glycan array binding signal (z-score) (Neu5Ac(b2-6)GalNAc): -0.435
- glycan array binding signal (z-score) [21]: -1.03
- glycan array binding signal (z-score) [22]: -0.882
- glycan array binding signal (z-score) [23]: -0.376
- glycan array binding signal (z-score) [24]: -0.403
- glycan array binding signal (z-score) (Neu5Gc(a2-3)Gal(b1-4)Glc): -0.382
- glycan array binding signal (z-score) [25]: -0.685
- glycan array binding signal (z-score) [26]: -0.28
- glycan array binding signal (z-score) [27]: -0.626
- glycan array binding signal (z-score) [28]: -0.551
- glycan array binding signal (z-score) (Neu5Gc(a2-6)GalNAc): -0.748
- glycan array binding signal (z-score) [29]: -0.526
- glycan array binding signal (z-score) [30]: -0.377
- glycan array binding signal (z-score) [31]: -0.296
- glycan array binding signal (z-score) [32]: -0.047
- glycan array binding signal (z-score) [33]: 0.198
